The text below walks through data of doi:10.1101/2020.04.27.064162.

The chains behind the UniProt entries cited, without tags or fusion partners.
UniProt Q9NRN9, whole entry: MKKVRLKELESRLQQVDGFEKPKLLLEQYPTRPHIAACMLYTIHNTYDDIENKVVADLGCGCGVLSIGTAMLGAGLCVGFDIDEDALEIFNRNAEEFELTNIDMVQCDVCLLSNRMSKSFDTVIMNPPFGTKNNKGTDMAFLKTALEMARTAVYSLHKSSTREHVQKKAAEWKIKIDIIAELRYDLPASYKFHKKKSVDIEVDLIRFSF

The assay has as its target FLAG and HA-tagged METTL5 (METTL5-FLAG-HA) (UniProt Q9NRN9). As to the kind of experiment: affinity purification with mass spectrometry.

No constants are given. Whether binding was seen depends on the method and setting. In cells and extracts the contact can be indirect. A yes stands for co-enrichment or nearness to the bait. Other partners may have been found.

B1: TRMT112 (endogenous) (protein, UniProt Q9UI30 1-125)
chain: MKLLTHNLLSSHVRGVGSRGFPLRLQATEVRICPVEFNPNFVARMIPKVEWSAFLEAADNLRLIQVPKGPVEGYEENEEFLRTMHHLLLEVEVIEGTLQCPESGRMFPISRGIPNMLLSEEETES
As to B1, the binding result is reported as “binds”.
